Among the data in patent US20220348609A1 (University of Washington, published 2022) are binding values, retold here.

Protein sequences, listed by entry. Tags and fused reporters are not part of them. Lines headed by an entry give the natural chain unless they say otherwise; changes in a name come on top.
UniProt P06756: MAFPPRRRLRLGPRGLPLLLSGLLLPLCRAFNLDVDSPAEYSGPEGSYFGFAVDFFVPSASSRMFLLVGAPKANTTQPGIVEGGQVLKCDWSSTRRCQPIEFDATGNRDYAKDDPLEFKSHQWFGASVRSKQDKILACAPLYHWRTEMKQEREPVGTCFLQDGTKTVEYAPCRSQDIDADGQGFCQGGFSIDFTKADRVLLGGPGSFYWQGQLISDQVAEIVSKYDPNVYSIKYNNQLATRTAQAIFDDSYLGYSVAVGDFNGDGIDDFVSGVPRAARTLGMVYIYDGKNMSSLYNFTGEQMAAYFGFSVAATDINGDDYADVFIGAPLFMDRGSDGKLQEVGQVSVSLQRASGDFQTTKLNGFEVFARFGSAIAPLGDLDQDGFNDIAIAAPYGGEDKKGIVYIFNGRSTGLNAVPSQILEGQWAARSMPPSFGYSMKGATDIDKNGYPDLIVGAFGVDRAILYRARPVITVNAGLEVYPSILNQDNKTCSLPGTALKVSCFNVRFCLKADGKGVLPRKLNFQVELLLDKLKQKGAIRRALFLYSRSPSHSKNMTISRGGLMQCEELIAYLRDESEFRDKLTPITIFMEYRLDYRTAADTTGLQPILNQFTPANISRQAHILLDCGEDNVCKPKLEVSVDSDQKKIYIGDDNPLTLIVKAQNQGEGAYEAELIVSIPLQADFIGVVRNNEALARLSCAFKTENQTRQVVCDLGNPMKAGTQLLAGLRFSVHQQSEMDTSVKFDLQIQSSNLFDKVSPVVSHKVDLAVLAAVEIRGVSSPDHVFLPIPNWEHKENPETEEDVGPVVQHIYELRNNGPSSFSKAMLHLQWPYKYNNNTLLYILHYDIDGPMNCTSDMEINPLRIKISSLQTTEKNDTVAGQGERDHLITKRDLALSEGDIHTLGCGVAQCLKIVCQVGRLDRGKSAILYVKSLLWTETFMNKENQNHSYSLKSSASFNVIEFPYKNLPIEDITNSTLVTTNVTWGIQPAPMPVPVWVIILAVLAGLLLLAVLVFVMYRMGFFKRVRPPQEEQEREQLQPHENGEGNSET
UniProt P18564: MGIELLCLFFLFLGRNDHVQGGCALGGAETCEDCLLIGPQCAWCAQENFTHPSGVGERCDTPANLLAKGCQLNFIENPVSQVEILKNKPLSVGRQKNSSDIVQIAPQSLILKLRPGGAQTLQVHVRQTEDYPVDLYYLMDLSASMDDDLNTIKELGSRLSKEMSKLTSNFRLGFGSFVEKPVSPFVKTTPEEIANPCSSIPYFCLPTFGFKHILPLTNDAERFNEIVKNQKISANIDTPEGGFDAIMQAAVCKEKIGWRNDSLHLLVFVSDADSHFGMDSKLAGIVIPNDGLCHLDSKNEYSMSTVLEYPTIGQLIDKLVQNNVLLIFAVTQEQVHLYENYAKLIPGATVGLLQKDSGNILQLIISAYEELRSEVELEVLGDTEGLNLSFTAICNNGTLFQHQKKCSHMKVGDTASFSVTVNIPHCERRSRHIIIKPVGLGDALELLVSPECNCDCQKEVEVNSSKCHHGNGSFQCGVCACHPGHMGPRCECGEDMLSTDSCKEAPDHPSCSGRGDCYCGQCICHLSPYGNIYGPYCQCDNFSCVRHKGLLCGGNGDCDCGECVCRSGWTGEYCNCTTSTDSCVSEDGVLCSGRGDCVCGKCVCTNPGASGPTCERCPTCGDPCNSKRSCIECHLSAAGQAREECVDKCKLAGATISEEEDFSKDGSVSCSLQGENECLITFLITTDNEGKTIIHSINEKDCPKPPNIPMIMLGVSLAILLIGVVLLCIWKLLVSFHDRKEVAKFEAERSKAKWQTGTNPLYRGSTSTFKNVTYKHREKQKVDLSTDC

No constants are given. Whether binding was seen depends on the method and setting. Some binding calls cover weakened binding; strength is not graded here.

This experiment addresses human αvβ6 integrin, soluble protein (biotinylated for yeast display; in solution for BLI) (human) (UniProt P06756+P18564). Nature of the experiment: assay not named.

B1: BP1_disulf (E13T_disulf2) (designed binder)
chain: MTKCVVRFVFRGDLATLMLRAVKDHLKKEGPHWNITSTNNGAELVVRGIHESDAKRIAKWVEKRFPGVHTETQCD
modifications: one engineered intramolecular disulfide bond
As for B1, the binding entry is reported as “binds”.
